Data reported in publication PMC4211326 (BioMed Research International, 2014).
Bridges are numbered along the chain shown (N, C = ends). The star is where a group is joined. Propanoyl(2-F) = CC(F)C(=O)*

Experiment: general procedure: Fmoc solid-phase peptide synthesis; TCP resin; H-Cys-2-ClTrt resin (loading 0.56 mmol/g); PyBOP/HOBt/DIPEA; HATU/DIPEA for second Trp coupling; HOAt/HATU
Conditions: whole synthesis, UV 220 nm, scale of the general procedure 100 mg resin

Substance | final HPLC purity [%]
H-CRRETAWAC-OH (disulfide 1-9; SMILES C[C@@H]1NC(=O)[C@H](Cc2c[nH]c3ccccc23)NC(=O)[C@H](C)NC(=O)[C@H]([C@@H](C)O)NC(=O)[C@H](CCC(=O)O)NC(=O)[C@H](CCCNC(=N)N)NC(=O)[C@H](CCCNC(=N)N)NC(=O)[C@@H](N)CSSC[C@@H](C(=O)O)NC1=O) | >95
{Propanoyl(2-F)}-CRRETAWAC-OH (disulfide 1-9; SMILES CC(F)C(=O)N[C@H]1CSSC[C@@H](C(=O)O)NC(=O)[C@H](C)NC(=O)[C@H](Cc2c[nH]c3ccccc23)NC(=O)[C@H](C)NC(=O)[C@H]([C@@H](C)O)NC(=O)[C@H](CCC(=O)O)NC(=O)[C@H](CCCNC(=N)N)NC(=O)[C@H](CCCNC(=N)N)NC1=O) | >99
